{
  "source": "patent US20100181197A1",
  "about": "(GE HEALTHCARE BIO-SCIENCES AB, priority 2007, published 2010)",
  "test": "general procedure: Fmoc solid-phase peptide synthesis; Wang resin; HBTU/HOBt, DIPEA",
  "settings": "whole synthesis, scale 100 mg resin-bound peptide cleaved",
  "data": [
    {"substance": "H2N-Glu-Gly-Asp-Gly-Lys-COOH", "values": [
      {"measurement": "isolated mass", "value": 35, "unit": "mg"}
    ]}
  ]
}
